Screening data, single-dose tests

By UniProt entry, the sequences of proteins in these tests, tags left out.
UniProt P9WNZ1, whole entry: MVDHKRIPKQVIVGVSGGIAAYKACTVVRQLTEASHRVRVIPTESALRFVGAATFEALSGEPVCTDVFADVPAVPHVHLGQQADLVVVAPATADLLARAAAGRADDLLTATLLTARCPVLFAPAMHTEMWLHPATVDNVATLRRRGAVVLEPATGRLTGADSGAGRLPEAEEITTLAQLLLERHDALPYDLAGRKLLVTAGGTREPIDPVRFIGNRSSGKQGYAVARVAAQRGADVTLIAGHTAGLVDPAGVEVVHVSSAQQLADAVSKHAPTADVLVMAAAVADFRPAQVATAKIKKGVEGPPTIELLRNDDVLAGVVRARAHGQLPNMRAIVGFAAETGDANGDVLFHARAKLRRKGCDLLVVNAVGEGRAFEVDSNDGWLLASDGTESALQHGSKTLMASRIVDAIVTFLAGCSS
UniProt P9WFT3, whole entry: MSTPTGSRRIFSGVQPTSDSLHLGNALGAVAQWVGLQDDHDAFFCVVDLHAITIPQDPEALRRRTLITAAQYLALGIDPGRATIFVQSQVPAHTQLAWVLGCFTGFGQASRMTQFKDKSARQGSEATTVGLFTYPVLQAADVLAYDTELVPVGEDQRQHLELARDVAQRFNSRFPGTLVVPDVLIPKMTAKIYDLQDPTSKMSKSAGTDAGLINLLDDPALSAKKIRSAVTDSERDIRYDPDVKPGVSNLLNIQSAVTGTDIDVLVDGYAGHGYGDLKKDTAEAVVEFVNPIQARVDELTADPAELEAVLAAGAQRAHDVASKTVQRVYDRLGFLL

CoaBC: 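Coenzyme A biosynthesis protein CoaBC, Mycobacterium tuberculosis (UniProt P9WNZ1). Enzyme assay of CoaBC with a phosphate dye (Biomol Green) read at 650 nm. Concentration: 30 µM. Direction is inferred from only a few compounds that gave an IC50; most scored high, so higher reads as stronger inhibition. Most strong results did not repeat in a second test. Of about 67,000 compounds tested this way, about 40 (0.06%) reached 50% or more in at least one test.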
MtTrpRS: 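Tryptophan-tRNA ligase, Mycobacterium tuberculosis (UniProt P9WFT3). Enzyme assay of tryptophanyl-tRNA synthetase; the read-out is not stated. Tested at 10 µM. Direction is not recorded; retested compounds ran higher, which suggests that high means inhibition. About 65,000 compounds were tested under these conditions; 0.098% (about 64) showed 50% or more at least once.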

The filed quantity is “Percent Effect” (%). The controls that fix the scale are not given in the record; negative values are as filed. The compounds are a random part of those screened. Two or more numbers in one place are separate tests of the same structure; such repeats can differ widely. A dash means the value is not listed here; it may have been measured.

| SMILES | CoaBC | MtTrpRS |
|---|---|---|
| `Cc1nc(CN2CCc3ccc(S(N)(=O)=O)cc32)oc1C` | -0.3822 | -4.806 |
| `COc1ccc(CN2CC[C@@H]3CN(S(C)(=O)=O)CCO[C@@H]3C2)cc1` | 8.245 | 1.621 |
| `CC1c2ncc(CNC(=O)C3CC3)n2CCN1Cc1ccsc1` (centres unmarked) | 6.782 | -8.067 |
| `Cc1cccc(-c2ccc(C(=O)NCC3CCOC3)c(=O)[nH]2)c1` (centres unmarked) | 4.389 | 1.8 |
| `Cc1cnc(N2C(=O)CSC2c2ccc(F)cc2)s1` (centres unmarked) | -13.2 | -2.202 |
| `Cc1cccc(CSc2ncc(Cl)c(C(=O)O)n2)c1` | -1.453 | -24.23 |
| `Cc1nc(CO[C@@H]2CN(Cc3ccc(F)cc3)[C@@H]3COC[C@@H]32)cs1` | 5.055 | -1.051 |
| `O=C(CCCc1ccc(Cl)cc1)N1CCC(c2nnc[nH]2)CC1` | 2.662 | 0.7766 |
| `COc1ccc(C(=O)N2C[C@@H](O)[C@H](NCCc3ncccc3C)C2)cc1` | -4.854 | 7.267 |
| `Cc1cnn(CC2CN(Cc3nccn3CC(F)(F)F)CCO2)c1` (centres unmarked) | 7.506 | 17 |
| `CC(=O)N1CCC2(CC1)COCCN2Cc1ccc(F)cc1` | 11.83 | -1.831 |
| `N#CCCCS(=O)(=O)N1CCC(CSc2ccccc2)C1` (centres unmarked) | - | 0.3096 |
| `Cc1ccc(NC(=O)NCC(c2cnn(C)c2)N(C)C)c(C)c1` (centres unmarked) | -1.613 | -3.269 |
| `CN(CC1Cc2ccccc2CN1C)C(=O)CSc1nccn1C` (centres unmarked) | -3.478 | 6.606 |
| `COc1cccc(-c2cc(NCc3cscn3)n(C)n2)c1` | 3.273 | -15.22 |
| `CCn1cc(N2Cc3nc(N)ncc3C2=O)cn1` | 2.288 | 5.427 |
| `CN(Cc1nccn1CC(F)(F)F)C(=O)c1cccc(C#N)c1` | 4.993 | -2.013 |
| `CCN1CCC(CNC(=O)c2cc(Cl)c[nH]2)CC1` | 0.2427 | -0.144 |
| `CCn1nc(C(C)C)cc1C(=O)NCCCOC` | -5.063 | -0.1896 |
| `CC(CNC(=O)c1ccc(Cl)cc1F)N1CCCC1` (centres unmarked) | -2.985 | 0.5485 |
| `CCOc1ccc(-c2ccnc(C)n2)cc1C(=O)O` | -1.587 | -1.944 |
| `CC(=O)N(C)c1nc(Cn2nnnc2C(C)(C)C)cs1` | 1.456 | -1.872 |
| `COc1nn(C)c2c1CCCN(C(=O)c1c[nH]cn1)C2` | 4.187 | -7.277 |
| `CN(C)CCN1CC(C(=O)N2CCC(c3cccc(O)c3)CC2)CC1=O` (centres unmarked) | -1.129 | -2.287 |
| `COC(=O)C1=NOC(Cc2cc(OC)c3c(c2)OCO3)C1` (centres unmarked) | 4.126 | -4.464 |
| `CC(C)COCCCNC(=O)NCC(O)c1cccc(F)c1` (centres unmarked) | 9.565 | -4.117 |
| `CNC(=O)C(C)(C)N1CCC[C@H]1C(=O)NC1CC1` | 4.74 | -2.485 |
| `CCc1nc(C2CCCN2C(=O)c2ccc(N(C)C)nn2)no1` (centres unmarked) | 8.095 | 3.193 |
| `Cn1ccnc1COc1ccc(CSc2nnnn2C)cc1` | 3.423 | -3.681 |
| `CC(=O)N[C@H]1C[C@@H](c2nc(-c3ccc4c(c3)OCO4)no2)N(C)C1` | -22.99 | -3.738 |
| `CN(CC(=O)NC(Cc1ccsc1)c1cccnc1)Cc1ccccn1` (centres unmarked) | 1.598 | 16.47 |
| `COc1ccsc1C(=O)Nc1cc(Br)c(=O)n(C)c1` | 25.21 & 5.291 | 20.07 |
| `COc1cccc(N2CCN(C(=O)c3noc4c3CCCC4)CC2)c1` | 3.038 | -0.4772 |
| `NC(=O)c1c(NC(=O)C2CCCO2)sc2c1CCc1ccccc1-2` (centres unmarked) | 1.211 | 0.1897 |
| `Cc1noc(C)c1CN1C[C@H](C)[C@]2(CCN(Cc3cccnc3)C2=O)C1` | 3.059 | -4.146 |
| `Cc1ncsc1-c1nnc(C2CCN(CC3CCCCC3)CC2)o1` | 2.487 | -1.917 |
| `COc1cccc(N2CC3(CCN(C(=O)NC(C)C)C3)CC2=O)c1` (centres unmarked) | -8.824 | 0.6975 |
| `O=C(C[C@@H]1COC[C@H]2CN(Cc3cccnc3)C[C@@H]12)NCC1CC1` | 4.485 | - |
| `N#Cc1cccnc1N[C@@H]1c2ccccc2C[C@@H]1O` | 6.971 | 0.1142 |
| `CCN(CC)c1ccc(CNC(=O)c2cnccn2)cn1` | 3.733 | 0.9336 |
| `CCN1CCC2(C=C(C(=O)N(C)C)c3ccccc32)CC1` | 2.475 | - |
| `Cc1cc(C)n(CC2CN(CC(=O)NC3CCCC3)CCO2)n1` (centres unmarked) | -1.205 | -1.199 |
| `CC1CCN(C(=O)NCCc2cc(F)ccc2F)C1` (centres unmarked) | 1.574 | -0.1555 |
| `Cc1cccc(CN2C[C@@H]3COC[C@]3(CNC(=O)c3ccsc3)C2)n1` | -1.416 | 4.314 |
| `Cc1noc([C@@]23CCO[C@@H]2CCN(C(=O)c2c(C)noc2C)C3)n1` | -2.258 | -0.4647 |
| `CN(C)C(=O)CN1CCC2(CC1)CC(=O)c1c(ccc3ccccc13)O2` | 3.155 | - |
| `CS(=O)(=O)N1C[C@H](NC(=O)c2ccno2)[C@@H]2OCCC[C@@H]21` | 0.7407 | - |
| `Cc1ccc(CNCc2cc(Br)c3c(c2)OCO3)cc1` | -6.087 | 3.565 |
| `COc1ncc(CN2CC[C@@](C)(O)[C@H](Oc3cccc(F)c3)C2)cn1` | 1.44 | 0.75 |
| `O=C(NCCC(=O)N1CCCc2ccccc21)c1cc(F)cc(F)c1` | 3.133 | -5.517 |

6 of the entries, repeated:

| SMILES | CoaBC | MtTrpRS |
|---|---|---|
| `Cc1ccc(CNCc2cc(Br)c3c(c2)OCO3)cc1` | -6.087 | 3.565 |
| `O=C(CCCc1ccc(Cl)cc1)N1CCC(c2nnc[nH]2)CC1` | 2.662 | 0.7766 |
| `COc1cccc(N2CC3(CCN(C(=O)NC(C)C)C3)CC2=O)c1` (centres unmarked) | -8.824 | 0.6975 |
| `Cc1cnc(N2C(=O)CSC2c2ccc(F)cc2)s1` (centres unmarked) | -13.2 | -2.202 |
| `N#Cc1cccnc1N[C@@H]1c2ccccc2C[C@@H]1O` | 6.971 | 0.1142 |
| `CN(C)C(=O)CN1CCC2(CC1)CC(=O)c1c(ccc3ccccc13)O2` | 3.155 | - |

Data taken from ChEMBL document CHEMBL3988442, “University of Dundee, Small-Polar-MMV Screening Library” (2021).